# Assay results: PubChem BioAssay AID2073 (Sanford-Burnham Center for Chemical Genomics, 2009)
# Protein sequences, listed by entry. Tags and fused reporters are not part of them.
# UniProt Q00975, whole entry, looked up: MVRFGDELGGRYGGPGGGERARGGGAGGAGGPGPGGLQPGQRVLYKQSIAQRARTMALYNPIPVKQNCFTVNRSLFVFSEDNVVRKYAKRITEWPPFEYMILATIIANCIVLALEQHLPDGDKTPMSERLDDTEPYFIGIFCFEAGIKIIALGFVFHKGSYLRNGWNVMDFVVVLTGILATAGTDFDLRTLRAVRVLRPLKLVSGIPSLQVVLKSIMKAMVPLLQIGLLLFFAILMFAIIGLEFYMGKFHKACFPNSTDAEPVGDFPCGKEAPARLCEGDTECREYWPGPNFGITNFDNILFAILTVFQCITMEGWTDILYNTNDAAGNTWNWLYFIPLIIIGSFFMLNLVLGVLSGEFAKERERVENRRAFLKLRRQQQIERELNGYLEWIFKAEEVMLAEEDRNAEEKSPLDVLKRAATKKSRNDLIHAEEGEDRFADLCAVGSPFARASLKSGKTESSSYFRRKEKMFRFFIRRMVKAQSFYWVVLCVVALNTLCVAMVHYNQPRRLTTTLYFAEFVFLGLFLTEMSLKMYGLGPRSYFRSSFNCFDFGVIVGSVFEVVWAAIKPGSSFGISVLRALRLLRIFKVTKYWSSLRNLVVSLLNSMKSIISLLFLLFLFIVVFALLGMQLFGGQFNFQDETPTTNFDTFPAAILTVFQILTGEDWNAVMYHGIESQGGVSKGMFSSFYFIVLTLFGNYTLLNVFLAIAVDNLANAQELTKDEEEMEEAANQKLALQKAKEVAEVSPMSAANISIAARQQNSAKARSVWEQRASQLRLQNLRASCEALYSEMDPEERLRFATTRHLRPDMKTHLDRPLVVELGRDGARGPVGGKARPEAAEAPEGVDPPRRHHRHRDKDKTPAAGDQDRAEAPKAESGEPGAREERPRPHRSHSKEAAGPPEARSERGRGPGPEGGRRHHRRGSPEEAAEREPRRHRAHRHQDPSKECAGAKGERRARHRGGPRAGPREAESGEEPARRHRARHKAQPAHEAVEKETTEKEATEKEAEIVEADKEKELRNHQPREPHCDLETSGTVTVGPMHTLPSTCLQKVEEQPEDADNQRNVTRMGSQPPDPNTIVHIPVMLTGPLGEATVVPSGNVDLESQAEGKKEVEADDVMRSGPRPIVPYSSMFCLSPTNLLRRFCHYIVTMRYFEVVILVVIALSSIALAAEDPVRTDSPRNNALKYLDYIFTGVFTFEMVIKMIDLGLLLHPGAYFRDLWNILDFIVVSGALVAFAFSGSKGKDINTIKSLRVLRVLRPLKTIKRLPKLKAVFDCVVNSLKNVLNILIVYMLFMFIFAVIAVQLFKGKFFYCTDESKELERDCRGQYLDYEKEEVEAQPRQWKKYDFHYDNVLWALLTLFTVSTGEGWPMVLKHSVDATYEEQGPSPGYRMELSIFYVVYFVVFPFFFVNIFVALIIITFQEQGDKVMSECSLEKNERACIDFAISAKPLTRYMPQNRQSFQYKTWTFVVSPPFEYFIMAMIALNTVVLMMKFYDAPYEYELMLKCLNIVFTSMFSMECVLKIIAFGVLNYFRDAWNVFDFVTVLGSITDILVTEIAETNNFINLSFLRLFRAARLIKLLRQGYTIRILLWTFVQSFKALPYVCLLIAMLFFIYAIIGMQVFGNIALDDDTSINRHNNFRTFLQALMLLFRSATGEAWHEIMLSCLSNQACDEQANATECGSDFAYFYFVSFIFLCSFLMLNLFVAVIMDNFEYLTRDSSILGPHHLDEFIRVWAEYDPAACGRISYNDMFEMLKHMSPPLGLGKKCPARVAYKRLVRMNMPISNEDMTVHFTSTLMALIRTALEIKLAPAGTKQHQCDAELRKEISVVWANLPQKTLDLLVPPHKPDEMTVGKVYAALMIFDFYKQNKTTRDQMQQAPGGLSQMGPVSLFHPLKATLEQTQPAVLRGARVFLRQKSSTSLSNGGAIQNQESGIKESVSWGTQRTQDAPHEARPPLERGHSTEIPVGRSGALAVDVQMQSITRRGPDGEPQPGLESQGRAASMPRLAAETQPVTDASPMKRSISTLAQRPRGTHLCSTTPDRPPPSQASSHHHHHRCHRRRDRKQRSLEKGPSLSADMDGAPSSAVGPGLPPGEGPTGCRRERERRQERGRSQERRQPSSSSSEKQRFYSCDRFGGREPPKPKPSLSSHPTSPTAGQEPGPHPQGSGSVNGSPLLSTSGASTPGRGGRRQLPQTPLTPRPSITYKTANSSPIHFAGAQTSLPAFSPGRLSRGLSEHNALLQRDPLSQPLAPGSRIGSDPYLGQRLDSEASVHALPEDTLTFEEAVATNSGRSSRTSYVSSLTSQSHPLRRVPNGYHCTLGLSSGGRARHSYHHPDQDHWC
# About 570 (0.2%) of roughly 290,000 compounds were called active. This list was built around the results that the source calls inconclusive (neither active nor inactive); the mix of calls is not that of the screen. Rule as the data show it: active = inhibition mostly above about 51% (no sharp cut-off); inconclusive = no clear call, values can overlap the other calls; inactive = mostly below about 53%.
# Molecular target: Voltage-dependent N-type calcium channel subunit alpha-1B (Homo sapiens) (UniProt Q00975)
# Assay: disruptors of CaV2.2 binding to Mint1 – biochemical, HTRF (AID 2073)
# Conditions: HTRF protein-protein interaction, Mint1-CaV2.2; at 20 µM; hits give high values
row,Compound,inhibition
1,COc1ccc(Nc2nc3c(C)cccn3c(=O)c2C=O)cc1,inconclusive: 52.1%
2,C=CCn1c(=O)c2ccccc2n2c(SCc3nc(N)nc(Nc4ccccc4C)n3)nnc12,inconclusive: 64.1%
3,CN(C)[C@@H]1C(=O)C(C(N)=O)=C(O)[C@@]2(O)C(=O)C3=C(O)c4c(O)ccc(Cl)c4[C@@H](O)[C@H]3C[C@@H]12,active: 56.1%
4,COc1cccc(C2CC(=O)N3CN(c4cccc(Cl)c4C)CSC3=C2C#N)c1OC (configuration not stated),active: 73.5%
5,CC(=O)Nc1nonc1-c1nc2ccccc2n1CCC#N,inconclusive: 76%
6,C(=C\c1ccco1)/C1=NN(c2ccccc2)C(c2ccco2)C1 (configuration not stated),inconclusive: 64.6%
7,Cc1nn(-c2ccccc2)c(Cl)c1/C=C/C(=O)c1ccccc1,inconclusive: 58.7%
8,CC(NC(=O)c1ccccc1[N+](=O)[O-])C1CC2CCC1C2 (configuration not stated),inconclusive: 75.4%
9,COc1cccc(NC(=O)CS(=O)(=O)c2cn(CC(=O)N3CCOCC3)c3ccccc23)c1,inconclusive: 78.4%
10,COc1cccc(-n2c(C)n[nH]c2=O)c1,inconclusive: 63.7%
11,CC1=Nc2nc(N3CCCCC3)c(C#N)c3c4c(nc(c23)N1)N(c1ccc(C(C)C)cc1)C(=O)C4,active: 54.8%
12,Cc1cc(C(=O)OCC(=O)Nc2cc(S(=O)(=O)N(C)C)ccc2C)c2ccccc2n1,inactive: -2.8%
13,O=C1/C(=C/c2ccccn2)SC(=S)N1CCc1ccccc1,inconclusive: 70.6%
14,Cc1c(NC(=O)C(C)OC(=O)c2cccc([N+](=O)[O-])c2)c(=O)n(-c2ccccc2)n1C (configuration not stated),inconclusive: 93.8%
15,COc1cc(OC)cc(C(=O)Nc2ccc(S(=O)(=O)Nc3nc(C)cc(C)n3)cc2)c1,inconclusive: 57.7%
16,COc1cc(C=O)ccc1OCCOCCOc1c(C)cc(Cl)cc1Cl,inconclusive: 65.4%
17,CC(=O)Nc1ccc(NC(=O)c2cc(-c3cc(C)c(C)cc3O)n[nH]2)cc1,inactive: -5.1%
18,CCOC(=O)c1sc(S(C)(=O)=O)c2c1CCc1conc1-2,inconclusive: 59.5%
19,COc1ccc(C2SCC(=O)N2CC23CC4CC(CC(C4)C2)C3)cc1 (configuration not stated),inconclusive: 67.8%
20,O=C1c2ccccc2C(=O)N1c1cccnc1,inconclusive: 77.3%
21,O=C(NC(=S)Nc1cccc(S(=O)(=O)NC2=NCCC2)c1)c1cc(-c2ccco2)nc2ccccc12,inactive: 61%
22,Nc1c(C(=O)N/N=C/c2ccccc2Cl)oc2nc(-c3ccccc3)cc(-c3ccco3)c12,inactive: 45.6%

row,Compound,inhibition
1,COc1ccc(OC)c(NC(=O)CCC(=O)N(Cc2ccc(OC)c(OC)c2)c2nccs2)c1,inactive: 0.5%
2,Cc1ccc(N=C2CSC(=O)N2)cc1,inactive: -2.7%
3,O=C(CNC(=O)/C(=C\c1ccc(Br)cc1)NC(=O)c1ccccc1)OCc1ccccc1,inconclusive: 57.1%
4,Cc1ccc(-c2[nH]c(-c3ccc(C(=O)O)cc3)nc2-c2ccccc2)cc1,inactive: 47.8%
5,O=C1NC(=O)/C(=C/c2ccc(N3CCOCC3)o2)N1,inactive: 52.2%
6,COc1ccc(C(=O)Nc2ccc(CN3CCOCC3)cc2)cc1Br,inactive: 3%
7,COC(=O)C1C(=O)NC(SC)=C(C#N)C1c1ccccc1F (configuration not stated),inactive: 8%
8,Cc1ccccc1NC(=O)Cn1nnc2c(cnn2-c2ccc(F)cc2)c1=O,inconclusive: 91.7%
9,Nc1ccc(-c2nc3ccc(-c4nc5ccccc5o4)cc3[nH]2)cc1,inconclusive: 54%
10,CCCc1ccc(-c2cc(C(=O)N/N=C/c3ccc([N+](=O)[O-])o3)c3ccccc3n2)cc1,inactive: 27.9%
11,CC1CC(C)CN(C(=O)CNC(=O)Cn2ccc3ccccc3c2=O)C1 (configuration not stated),inconclusive: 74.4%
12,CC(=O)c1cccc(NC(=O)NNC(=O)c2ccc(-c3ccccc3)cc2)c1,inactive: 22.1%
13,O=C(CSc1nccn1-c1ccc(F)cc1)Nc1ccc2c(c1)OCO2,inconclusive: 79.8%
14,O=C(NNC(=O)c1ccc(Br)o1)c1ccc(NC(=O)c2ccccc2)cc1,inconclusive: 77.8%
15,COc1ccccc1N1N=C(C(=O)c2ccccc2)C2C(=O)N(c3ccc(Br)cc3)C(=O)C21 (configuration not stated),inconclusive: 51.8%
16,O=C(COC(=O)/C=C/c1ccc(F)cc1)NCc1ccco1,inactive: 8.8%
17,O=C(Nc1ccccc1N1CCCC1)c1cc(Cl)ccc1Cl,inconclusive: 70.4%
18,Cc1[nH][nH]c(=O)c1C(c1ccc(-c2ccc(Cl)cc2Cl)o1)c1c(C)[nH][nH]c1=O,inactive: 2%
19,O=C(COc1ccc2c(-c3ccccc3)cc(=O)oc2c1)Nc1ccc(CN2CCOCC2)cc1,inconclusive: 87.8%
20,Cc1cc(-c2csc(NC(=O)c3ccc(=O)[nH]c3)n2)c(C)n1Cc1ccco1,inconclusive: 78.3%
21,CC1CN(C(=O)C(Sc2ccccc2)c2ccccc2)CC(C)O1 (configuration not stated),inconclusive: 51.5%
22,Cc1nnc(SCC(=O)N(CC(C)C)c2c(N)n(CC(C)C)c(=O)[nH]c2=O)n1-c1ccccc1,inconclusive: 58%

# A draw from above in order of molar mass, falling:
row,Compound,inhibition
14,O=C(NNC(=O)c1ccc(Br)o1)c1ccc(NC(=O)c2ccccc2)cc1,inconclusive: 77.8%
8,Cc1ccccc1NC(=O)Cn1nnc2c(cnn2-c2ccc(F)cc2)c1=O,inconclusive: 91.7%
5,O=C1NC(=O)/C(=C/c2ccc(N3CCOCC3)o2)N1,inactive: 52.2%

# The list continues.

row,Compound,inhibition
1,COc1cc(NC(=O)c2ccc(C)cc2)ccc1NC(=O)c1cc2ccccc2o1,inconclusive: 66.7%
2,Cc1cc2nn(-c3ccc(Cl)cc3)nc2cc1N,inconclusive: 58.3%
3,Cc1ccc(CSc2nnc(SCC(=O)N/N=C/c3c[nH]c4ccccc34)s2)cc1,active: 59.7%
4,O=C(Nc1ccc(F)cc1)c1ccc2nsnc2c1,inconclusive: 56.2%
5,Cc1cccc(OCCNC(=S)NC(=O)c2cncc(Br)c2)c1,inconclusive: 55.3%
6,Cc1[nH]n(C(N)=S)c(=O)c1N=Nc1cccc([N+](=O)[O-])c1C,inactive: 14.9%
7,N#CC1=C2SCN(c3ccccc3)CN2C(=O)CC1c1ccccc1Cl (configuration not stated),inactive: 57.1%
8,COC(=O)c1ccc(CSc2nc3ccccc3c(=O)n2Cc2ccco2)o1,inconclusive: 60.4%
9,CCOc1ccc(CCNC(=O)C2CCN(C(=O)N(C)C)CC2)cc1OCC,inconclusive: 56.9%
10,COCCOC(=O)C1=C(C)NC2=C(C(=O)CC(C)(C)C2)C1c1cc2c(cc1Br)OCO2 (configuration not stated),inconclusive: 55.9%
11,CCCCNC(=O)[C@H](CSCc1ccccc1)N1Cc2ccccc2C1=O,inactive: 0.1%
12,CC(C)c1ccc(NC(=O)CSc2nnc(-c3ccccn3)n2C)cc1,inconclusive: 53.3%
13,O=C(CCCN1C(=O)/C(=C\c2ccco2)SC1=S)Nc1ccc2ccccc2c1,inconclusive: 78.4%
14,O=C(c1cccc(C(F)(F)F)c1)C1CCCN(C(=O)/C=C/c2cnc[nH]2)C1 (configuration not stated),inconclusive: 59.1%
15,O=C1C=C(Nc2ccc(Cl)cc2)CC(c2ccc(Cl)cc2)C1 (configuration not stated),inconclusive: 53.8%
16,CCOC(=O)Cn1c(=N)n(CCOc2ccc(OC)cc2)c2ccccc21,inconclusive: 68.6%
17,CC(C)C(=O)N1CCN(c2ccccc2NC(=O)Cc2ccc(Cl)cc2)CC1,inconclusive: 74.1%
18,CCOc1ccc(CN(CC)C(=O)c2ccc3c(c2)[nH]c(=O)c(=O)n3CC)cc1OC,inconclusive: 51.7%
19,CCOC(=O)c1nnsc1NC(=O)Nc1ccc(OC)cc1,inconclusive: 54.4%
20,O=Cc1ccccc1OCCOc1ccc([N+](=O)[O-])cc1,inconclusive: 87.5%
21,CCCC(O)(CCC)C(=O)NN1CCCCC1,inconclusive: 54.6%
22,O=C(O)CCCCC1CCSS1 (configuration not stated),active: 101%

# No new results follow: 2 of the compounds above.
row,Compound,inhibition
7,N#CC1=C2SCN(c3ccccc3)CN2C(=O)CC1c1ccccc1Cl (configuration not stated),inactive: 57.1%
8,COC(=O)c1ccc(CSc2nc3ccccc3c(=O)n2Cc2ccco2)o1,inconclusive: 60.4%

# Reformatted tab-delimited: entries from further up.
row	Compound	inhibition
17	CC(C)C(=O)N1CCN(c2ccccc2NC(=O)Cc2ccc(Cl)cc2)CC1	inconclusive: 74.1%
18	CCOc1ccc(CN(CC)C(=O)c2ccc3c(c2)[nH]c(=O)c(=O)n3CC)cc1OC	inconclusive: 51.7%
19	CCOC(=O)c1nnsc1NC(=O)Nc1ccc(OC)cc1	inconclusive: 54.4%

# Continued.

row,Compound,inhibition
1,Cc1c(NC(=O)C2CC(c3ccc(F)cc3)=NO2)c(=O)n(-c2ccccc2)n1C (configuration not stated),inconclusive: 60.8%
2,CCOc1cc(NC(=O)c2ccccn2)c(OCC)cc1NC(=O)c1cccc(C)c1,inconclusive: 60.4%
3,O=S(=O)(c1ccc(F)cc1)N1CCC(N2CCCC2)CC1,inconclusive: 54.9%
4,Cc1ccc(NC(=O)COC(=O)c2ccc3c(c2)C(=O)N(CCc2ccccc2)C3=O)c(C)c1,inconclusive: 64.6%
5,CCCCN1C(=O)C2C(c3ccc(OC)cc3O)NC(CC(C)C)(C(=O)O)C2C1=O (configuration not stated),inconclusive: 63.6%
6,COc1ccccc1CNC(=O)/C=C/c1ccc(Br)o1,active: 79.5%
7,COc1ccc(-c2[nH]nc3c2C(c2ccoc2)C(C#N)=C(N)O3)cc1 (configuration not stated),inconclusive: 54.1%
8,CC(=O)Nc1cc(Cl)c(N=Cc2ccc(O)cc2O)cc1Cl,inconclusive: 58%
9,Cc1ccc(N=c2sc(C)c(C)n2C)cc1,inactive: -35.3%
10,Cn1nnnc1SCC(=O)N1c2ccccc2Sc2ccccc21,inconclusive: 54%
11,CCOc1ccc(-n2cc(C(=O)c3cc(Cl)ccc3O)cc(C#N)c2=O)cc1,inconclusive: 72.5%
12,Cc1cc(C)cc(NC(=S)Nc2cccc3cnccc23)c1,inactive: 16.7%
13,Cc1ccc(NC(=O)Cn2sc3nc(C)cc(C)c3c2=O)c(Cl)c1,active: 70.3%
14,NS(=O)(=O)c1ccc(N=Nc2c(O)c(C(=O)O)cc3ccccc23)cc1,inactive: 20.5%
15,COc1ccc(N=C2SC(C(=O)O)CC(=O)N2C)cc1 (configuration not stated),inconclusive: 78.9%
16,CC1CCC(NC(=O)c2ccc3c(c2)OCO3)CC1 (configuration not stated),inconclusive: 65.4%
17,CC(=O)c1cccc(NC(=O)C(NC(C)C)c2ccccc2)c1 (configuration not stated),inconclusive: 72.9%
18,CCC(CC)C(=O)Nc1cccc(S(=O)(=O)c2cccc(NC(=O)C(CC)CC)c2)c1,inconclusive: 83.5%
19,COc1ccc(NC(=O)C(=O)N/N=C/c2cccnc2)c(OC)c1,inconclusive: 60.7%
20,Cc1cccc2sc(NC(=O)[C@@H]3CCCN3C(=O)c3cccs3)nc12,inconclusive: 83.4%
21,COc1cc(C2Nc3cccc4cccc(c34)N2)ccc1OC(C)=O,inactive: 74.4%
